These are yes or no findings as the source states them, for the method shown. Some entries that bind do so weakly or less than the wild type.
Target: human interleukin-18 (IL-18), recombinant (human) (UniProt Q14116)
Assay: Luminex screening

Protein sequences, listed by entry. Tags and fused reporters are not part of them. Residues count along the entry.
UniProt Q14116, residues 37-193: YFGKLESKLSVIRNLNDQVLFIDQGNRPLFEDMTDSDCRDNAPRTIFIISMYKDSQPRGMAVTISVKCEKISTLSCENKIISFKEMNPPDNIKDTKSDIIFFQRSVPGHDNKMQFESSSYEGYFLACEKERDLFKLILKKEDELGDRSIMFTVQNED

binding: binds
B1: Antibody 131B4 (antibody, V domains shown)
VH: EVQVQQSGAELVKPGASVKLSCTASGFKIKDTYIHWLKQRPEQGLEWIGRIDPANGNTIYGSKFQGKATITADTSSNTAYIQLSSLTSGDTAVYFCAGYVWFAYWGQGTLVTVSA
VL: DAVLTQTPLSLPVSLGDQASISCTSSQSLVHSNGNTYLHWYLQKPGQSPKLLIYKVSDRFSGVPDRFSGSGSGTDFTLMITRVEAEDLGVYFCSQSSLVPWTFGGGTKLEVK

— patent US20230250164A1
